Test results reported in patent US9944607B2, “Thiohydantoin derivatives and uses thereof” (Whitehead Institute for Biomedical Research, priority 2012, dated 2018).
Some of these results come from one statement about several compounds together.

System: Candida albicans CaCi-2
Assay: Primary assay: C. albicans CaCi-2 growth inhibition (Alamar Blue)
Assay type: cell-based
Settings: re-test of 39 DMSO stocks; AIDs 588529, 588530, 588634

## CCOC(=O)N1C(=O)C2(CCCCC2)N(c2ccc(C)cc2)C1=S [CID 3889161]
  Selectivity towards fungal cells (C. albicans vs murine 3T3 fibroblast counterscreen): greater than 10 fold
